One substance from paper PMC9911733 can be followed below.

Protein sequences, listed by entry. Tags and fused reporters are not part of them. Residues count along the entry.
UniProt P08101, residues 30-330: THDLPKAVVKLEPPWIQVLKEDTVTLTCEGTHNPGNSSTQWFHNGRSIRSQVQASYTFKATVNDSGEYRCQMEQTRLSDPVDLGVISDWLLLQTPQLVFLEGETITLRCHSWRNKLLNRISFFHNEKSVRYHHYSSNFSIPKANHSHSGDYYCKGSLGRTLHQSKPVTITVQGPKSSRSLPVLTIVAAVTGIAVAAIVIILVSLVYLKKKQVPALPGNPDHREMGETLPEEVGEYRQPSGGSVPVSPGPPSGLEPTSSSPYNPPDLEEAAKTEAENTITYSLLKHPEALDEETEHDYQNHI

These are yes or no findings as the source states them, for the method shown. Some entries that bind do so weakly or less than the wild type.

The experiment deals with T1, recombinant mouse fibrinogen-like 2 (rmFGL2), conjugated with biotin (mouse) (UniProt P12804).
T1 sequence (chain, biotin (conjugated; site not stated)): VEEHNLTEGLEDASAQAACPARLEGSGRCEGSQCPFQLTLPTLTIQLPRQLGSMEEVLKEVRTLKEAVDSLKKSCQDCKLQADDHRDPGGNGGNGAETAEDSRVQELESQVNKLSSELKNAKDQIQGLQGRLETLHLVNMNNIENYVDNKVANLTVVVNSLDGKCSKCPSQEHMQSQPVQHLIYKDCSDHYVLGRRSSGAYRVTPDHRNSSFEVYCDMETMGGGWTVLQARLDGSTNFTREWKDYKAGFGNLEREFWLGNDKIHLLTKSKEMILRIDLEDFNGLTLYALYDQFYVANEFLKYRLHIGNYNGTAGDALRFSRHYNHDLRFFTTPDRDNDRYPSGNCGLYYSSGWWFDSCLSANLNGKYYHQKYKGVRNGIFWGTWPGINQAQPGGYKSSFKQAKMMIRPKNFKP
The experiment can be described thus: microfluidics slide chip cell binding assay; biotin-conjugated rmFGL2 (4 mg/mL, 1 h) anchored on a streptavidin-coated PDMS slide chip; T cells passed through at 1.8 mL per hour; chip imaged by fluorescence microscopy; WT against FcγRIIB-/- T cells; only the target purified.

In the case of “FcγRIIB on mouse T cells (from UniProt P08101 30-330) (receptor)”, the binding entry is on record as “binds”.
